In all, about 53,000 sequences went through this assay and about 3,700 (7%) were called active.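 Rule for the calls: active = gene knockdowns whose robust z-score for IL-1 alpha signal is at least 2 or at most -2, so actives lie on both sides; inactive = the rest.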 This is one part of the list.
Test: Components of the Cytosolic LPS Sensing Pathway: Gene Identification via Genome-wide siRNA Screen;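 note: robust z of the log signal after scaling to non-targeting control siRNA wells of the plate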
Conditions: RAW264.7 macrophages, IL-1a HTRF, actives lie on both sides, screened at 100 nM (by protocol), cells primed 5 h with Pam3CSK4 first
Outline: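 Read-out: IL-1a HTRF on supernatant, divided by plate negative-control median ×100, log-transformed and converted to robust z-score. Cells were RAW264.7 given 100 nM siRNA, Pam3CSK4-primed 5 hours, then LipidA-transfected 24 hour.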

Row | Sequence | z-score
1 | GGUACUACUUUCUAAUUCATT against Vcam1 | inactive: 1
2 | GCUAAGUACGUUCAUGGCATT against Gba | inactive: 0.571
3 | CCUGGAUGGAUUUAAGGCATT against Abcd4 | inactive: 0.782
4 | CGCUUUAGUGACUUUCAAATT against Metrnl | inactive: -0.583
5 | GGAACUGGAUCAAGAAUUUTT against Hhat | inactive: 0.0393
6 | CCAGUAAAGUAGGUUUUCUTT against Auts2 | inactive: 1.36
7 | GGAUGAAGAUGGAGACAUGTT against Lmx1b | active: -2.58
8 | CCGCAGUUGUCUUUCAAGATT against Dcaf1 | inactive: 0.724
9 | GGGUAGACUGUCAGAUUUUTT against Tmc5 | inactive: 1.35
10 | GCACAUUACUCCUUAUUCUTT against Olfr74 | inactive: -0.53
11 | CCAAUGACUUCUGGUUAGATT against Tdpoz1 | inactive: 0.665
12 | GGAUCUCGGGAAAAAGUUGTT against Spesp1 | inactive: 0.185
13 | CGAGCAUGAAAAUUCGGUUTT against Neurog1 | inactive: 1.24
14 | GGUCAAAACACCUUUAGAUTT against Trip4 | inactive: -0.167
15 | GGAGCAUCCACACUUUGUUTT against Hif3a | inactive: -0.343
16 | GGAGUUGUAGUGAGGGUCATT against Fcgbp | inactive: -0.971
17 | GCAAACCUGACAAAAAUAGTT against Tifab | inactive: 0.255
18 | ACUAGACUGAACUACCUGATT against Aim2 | inactive: 0.137
19 | GGUAUUGUGGCCAGUAUUUTT against Ptdss2 | inactive: 0.185
20 | GGGCGAGAAGUUUAAACUUTT against Dnaja4 | inactive: 0.822
21 | GGGAAAUGGUGAAUCACAGTT against Dpp8 | active: 2.25
22 | GCUACAGAUACCUCGGAUATT against Psme1 | inactive: 0.841

Row | Sequence | z-score
23 | GGGAAAAAUAUCAGUUAUGTT against Khdrbs1 | inactive: 0.465
24 | GGUCUUUUCAGAAUAAACUTT against Timmdc1 | inactive: -1.29
25 | GCUCCAGUGAUUAUUUAUATT against Cep70 | inactive: 0.749
26 | GGAAGACUAUUUUCUGUAUTT against Gabarapl1 | inactive: 1.61
27 | GGAGCUGUUUACCAUGUCATT against Rgl1 | inactive: -1.31
28 | GGUCUGGUGUUGUAGGAUATT against Map1lc3b | active: 2.71
29 | CCAUGGCGAUGUCAUGUUCTT against Kcnrg | inactive: 1.12
30 | GGACACAGAUGCUUUCUUGTT against Dnajc24 | inactive: -0.253
31 | CCCGCACAUGAAAUCCGCUTT against Rflna | inactive: 0.455
32 | GUUCAACGAGAGUUCCAGUTT against Olfr898 | inactive: -1.49
33 | CAAUGUGCAGAGUUUCCGATT against LOC547349 | inactive: -1.98
34 | GGAGGUGGUACAAUACACCTT against Gsg1 | active: 2.86
35 | GGUCAAGUGCGAGAAACUCTT against Mafb | inactive: -0.016
36 | GGACAGAAGAAGAAAGCCCTT against Gpr22 | inactive: -0.539
37 | GGUAAAGUAGGGAUGGAAUTT against Inpp4b | inactive: -0.0761
38 | GUCAUCAGGACUGGGAAGUTT against Sprr2b | inactive: 0.597
39 | CCCAAAUGCGCCAAAAUCATT against Adat2 | inactive: -0.243
40 | CGCAGUCACACCUUGUUAUTT against Cds2 | inactive: 0.428
41 | GGAUAUCGAGGAGAUGAUCTT against Aoc3 | active: -2.17
42 | CGGUGCAUCCAAAUUCACATT against Zfp560 | inactive: 0.404
43 | GUGUCAUUUCCCGGGACAUTT against Atp5g1 | inactive: 1.64
44 | GGUUAAAAUGAGCUUGUUGTT against Rngtt | inactive: 1.02

Row | Sequence | z-score
45 | GGAGUUUGCCACAAUUGUUTT against Txndc11 | inactive: -0.503
46 | GCCAUACUACGACAUGACATT against Sstr2 | inactive: -0.743
47 | GGUGGAUAUCCUAUAACUATT against 4930402H24Rik | inactive: 0.469
48 | GGGUGACCUUGAUUCACACTT against Cda | inactive: 0.203
49 | CCCGUGUCUAUGUGAAAAUTT against Olfr1015 | inactive: 0.226
50 | GCCUUAAUGAGGCUACUAGTT against Art2a | inactive: 0.111
51 | GGAAGCAAUGUGAGAAAUUTT against Tmem91 | active: 2.54
52 | CCAAAGAGAUAUCCCUCCCTT against Olfr1350 | inactive: -0.283
53 | GGGAAGCCUUACUUAUUGGTT against Vmn1r53 | inactive: 1.25
54 | CCUGAUAGGCCUAAACCUUTT against Tmem147 | inactive: -0.398
55 | CCAGAUCCGGACAAUUGACTT against Ppp4c | inactive: 1.85
56 | GCUCAGCUGUGGGUAAUACTT against Raver2 | active: -2.77
57 | GGCAUGCAGGGUAUUGCGUTT against Chtf18 | inactive: 0.157
58 | CCUCAUUGUACAAGUAUCUTT against Ntm | inactive: -1.17
59 | GGUUAUUCUGGCUAUGGGCTT against Taf15 | active: -2.22
60 | GGAAGAUGUUGAUGAUAUCTT against Snap47 | inactive: 1.15
61 | GGAAGCUACGCUCAAUGAGTT against Dkk3 | inactive: -0.796
62 | CGACUCUUGCCUGUUCGUGTT against Adamtsl5 | active: -2.48
63 | GGAGACUUAAAGGACAAAUTT against Jade1 | inactive: 0.769
64 | CCAAAUAUCACACACCCGATT against Fam187a | inactive: 0.798
65 | CGCCUUAAACGAAGCUGCUTT against 1700034E13Rik | inactive: -1.28
66 | GGACAUCGGCUACAACACCTT against Fzd10 | active: -2.08

As a short view, part of the list above.
Row | Sequence | z-score
6 | CCAGUAAAGUAGGUUUUCUTT against Auts2 | inactive: 1.36
7 | GGAUGAAGAUGGAGACAUGTT against Lmx1b | active: -2.58
8 | CCGCAGUUGUCUUUCAAGATT against Dcaf1 | inactive: 0.724
9 | GGGUAGACUGUCAGAUUUUTT against Tmc5 | inactive: 1.35
10 | GCACAUUACUCCUUAUUCUTT against Olfr74 | inactive: -0.53
11 | CCAAUGACUUCUGGUUAGATT against Tdpoz1 | inactive: 0.665
12 | GGAUCUCGGGAAAAAGUUGTT against Spesp1 | inactive: 0.185

The list goes on:

Row | Sequence | z-score
67 | GGAAAGACACAGAUAAUAATT against Arvcf | inactive: -1.28
68 | GGUCACAGACAUUCCCGAATT against Atad2 | active: -2.89
69 | GAUAAAAUCGGACUGAUAATT against Olfr1079 | inactive: 0.837
70 | GGAGACUCAGGAAAAAAUUTT against Olfr1424 | inactive: -0.408
71 | CCGUAGACUCGGUGAAGCUTT against Plpbp | inactive: -0.143
72 | GGUAACGAUCCACUUAAAGTT against 0610040J01Rik | inactive: 0.264
73 | CCUACGUGCACAUUUGUUUTT against Erap1 | inactive: 0.415
74 | GGUGAGCAAGUCGAAGAGATT against Igsf3 | inactive: 0.849
75 | GGACUUGGAAAAUAAGGAATT against Usp38 | inactive: -0.159
76 | CCUUGCACGACAUUUUACUTT against Idnk | inactive: 0.313
77 | GCCAAACACUUUAUGCGACTT against Ndst4 | inactive: 0.711
78 | GGACUUUAAUCACAGACAATT against Fem1b | inactive: -1.73
79 | GGAACCACUGCUUUCAAAATT against Cd36 | inactive: 0.83
80 | GGCACAGAUACAUCAAAUATT against Spag9 | inactive: 0.777
81 | GGUUGUGUUGCUAAUCUUUTT against Tbpl2 | inactive: -0.914
82 | GGCAGCUAAGAAUGGAGCATT against Gde1 | inactive: 1.29
83 | GGAAAUCUUGGCAGUUUCCTT against Ercc8 | inactive: 0.0594
84 | GGCGAUUUUGUGACUUCGUTT against Ptgr2 | inactive: -0.0904
85 | GGAUAUUUGUGUUCCUAAGTT against Vmn1r193 | inactive: -0.683
86 | GGUUCCUUCUUCAUCUUCCTT against Cysrt1 | inactive: -1.07
87 | GCAGUAAAUGUCCCAUCCGTT against Caskin1 | inactive: -1.28
88 | GGAUCCUGUCCACAAGCACTT against Astn1 | inactive: 0.519

Row | Sequence | z-score
89 | CCCUGAUUGCAUCCUGUUATT against A430093F15Rik | inactive: 0.249
90 | GGGCCAACCAACGAAAUGUTT against Uba1y | inactive: 0.667
91 | CCAGUCAACAAGAAUCAGATT against Rptn | inactive: -0.105
92 | CGAAACCAACAGUUAGAAGTT against Cby1 | inactive: 0.71
93 | GGUAGCUCUGAGACAAUUCTT against Pkhd1l1 | inactive: 0.857
94 | GGCAAUGUAUUAAUUACAGTT against Otc | inactive: 0.219
95 | GCCCGACAUAGAAUUCACCTT against Ncor2 | inactive: 0.563
96 | GGAAACAAGGAAGCAAUUATT against Psmd1 | active: -3.01
97 | GGACGAGGAAAAGUCAUCATT against 4930579C12Rik | inactive: -0.0701
98 | CCUGAUGUUUACUAUAAACTT against Atp6v1g3 | inactive: -0.679
99 | GGUGGAAUUGGAAUCACCUTT against Get1 | inactive: -0.94
100 | GGAAGUGGAAGUUCUGAAGTT against Tsc22d1 | inactive: -0.886
101 | UUGUGACCAAUUUCUGAAUTT against Pgbd1 | inactive: -0.594
102 | GCCAGUCUGGAGUUGCUUUTT against Timm23 | inactive: 1.04
103 | GCUUUGUAACCGUCCUCCATT against Ftl1 | inactive: 0.342
104 | GGCCAGUUCCUUCUAGACUTT against Abhd1 | inactive: -0.179
105 | GGGCUUCCCUUACAAAAGGTT against Padi3 | inactive: 0.0845
106 | GGGAAAUCACCAUAUUUCCTT against Atp10b | inactive: 0.0262
107 | CCGUGUUGUCUGAAAAAUATT against Fam98c | inactive: -0.331

From PubChem BioAssay AID1508600 (Functional Genomics Laboratory (NCATS/FGL), 2020)
